Assay results reported in patent publication US20080305186A1, “Method and Composition for the Treatment of Cardiac Hypertrophy” (BOARD OF REGENTS, THE UNIVERSITY OF TEXAS SYSTEM, priority 2007, published 2008).
At least one structure is not confirmed: it was looked up by name or label, or the drawing left a doubt.

Experiments:
[1] = test system: positive chronotropic effect induced by isoproterenol; assay: Heart rate of isoproterenol-treated mice; assay type: in vivo; details: day 9 of treatment, vs isoproterenol-only mice; n=5; FIG. 5
Procedure: All animal and mouse studies and/or models of cardiac hypertrophy were conducted in accordance with the standards set forth in the Guide for the Care and Use of Laboratory Animals (NIH Publication No. 85-23, revised 1996) and were approved by our Institutional Animal Care and Use Committee. Eight week-old C57BL/6 male mice (Jackson Laboratory) were given isoproterenol (Sigma Aldrich) at 40 mg·kg^−1d^−1 administered S.Q. via micro-osmotic pump insertion (ALZET 1007D). Briefly, animals were anesthetized with isoflurane (1.5%) and oxygen (98.5%) using an animal ventilator (Surgivet), an incision (1 cm) was made on the back between the shoulder blades, and micro-osmotic pumps containing isoproterenol dissolved in a saline solution (0.9% NaCl) were inserted into the infrascapular subcutaneous tissue.
Doxycycline was given in drinking water at 6 mg mL^−1 (Sigma Aldrich) containing 5% sucrose unless specified otherwise. Control animals were given 5% sucrose water. […] Briefly, chow was crunched in powder and then mixed with carbamazepine. […]
The heart rates of the mice were measured before induction of cardiac hypertrophy and after treatment on day 9, which was 1 day before they were sacrificed. […] Heart rates were measured before the experiment (t0) and 1 day before the sacrifice. […]

CREB = assay: Western blot of phosphorylation status of CREB; assay type: in vivo; details: mice with isoproterenol-induced cardiac hypertrophy

For C[C@H]1c2cccc(O)c2C(=O)C2=C(O)[C@]3(O)C(=O)C(C(N)=O)=C(O)[C@@H](N(C)C)[C@@H]3[C@@H](O)[C@@H]21 [doxycycline], the heart rate [1] was “No clear alteration in heart rate” and the “levels of phosphorylated CREB” value (CREB) was “remained elevated”.
